Experimental data as given in ChEMBL document CHEMBL1138053, “Design, synthesis, and structure-activity relationships of thieno[2,3-b]pyridin-4-one derivatives as a novel class of potent, orally active, non-peptide luteinizing hormone-releasing hormone receptor antagonists” (J Med Chem, 2006).

Assay: Distribution coefficient, log D of the compound
Conditions: octanol/water

## CC(C)C(=O)Nc1ccc(-c2sc3c(c2CN(C)Cc2ccccc2)c(=O)c(C(=O)c2ccccc2)cn3Cc2c(F)cccc2F)cc1
  logD: 7.29
